Data taken from publication PMC6941992, “Polar recruitment of RLD by LAZY1-like protein during gravity signaling in root branch angle control” (Nature Communications, 2020).
Results are given in words; binding and its absence hold for the method and conditions named. A result given as binding can be weak or reduced; the word gives no strength. Tags and fused reporters may be left off the sequences shown.

Amino acid sequences for entries named in this document (tags omitted). A change or cut given only in a name is not applied to a line headed by its entry.
UniProt Q5XVG3: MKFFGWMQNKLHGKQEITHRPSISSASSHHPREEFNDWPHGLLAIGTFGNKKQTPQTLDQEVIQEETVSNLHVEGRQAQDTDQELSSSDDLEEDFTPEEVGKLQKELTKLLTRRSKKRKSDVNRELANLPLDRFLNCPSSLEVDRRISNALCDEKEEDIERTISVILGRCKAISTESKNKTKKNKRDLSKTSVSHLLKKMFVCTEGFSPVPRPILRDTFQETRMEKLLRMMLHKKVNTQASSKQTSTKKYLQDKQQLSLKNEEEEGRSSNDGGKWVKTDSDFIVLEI

T1: GST-LZY3 CCL (Arabidopsis thaliana) (UniProt Q5XVG3)
T1 sequence: KWVKTDSDFIVLEI


Key:
[1] = molecular target: T1, GST-LZY3 CCL (Arabidopsis thaliana); assay: pull-down; purified protein and GST-fusion protein mixed with glutathione sepharose 4B, 4 °C; eluates on SDS-PAGE; both purified
[2] = molecular target: LZY3 (LAZY1-LIKE 3), coding region fused to the GAL4 DNA-binding domain (Arabidopsis thaliana); assay: two-hybrid; spot assay after mating (Y2HGold x Y187) of GAL4 DBD and AD fusions of full length or portions of LZY or RLD; -Leu/-Trp/-His/-Ade, 2 days at 30 °C
[3] = molecular target: CCL domain of LZY3, yeast two-hybrid fusion (Arabidopsis thaliana); assay: as above

binding [1]	binding [2]	binding [3]	Molecule
binds	–	–	RLD3 BRX domain, purified (Arabidopsis thaliana) (domain or fragment)
–	binds	binds	BRX domain (C terminus) of RLD1, yeast two-hybrid fusion (domain or fragment, UniProt Q947D2 1023-1078) AEWIEQYEPGVYITLVALHDGTRDLRRVRFSRRRFGEHQAETWWSENREKVYEKYN
